Results are given in words; binding and its absence hold for the method and conditions named. In cells and extracts the contact can be indirect. Some results given as binding are weak or reduced against the parent protein; the word gives no strength.
Target: Cdh1 (APC/C co-activator) (human (endogenous in HEK293T)) (UniProt Q9UM11)
Experiment: co-IP; endogenous Cdh1 immunoprecipitated with anti-Cdh1 antibody on protein A/G beads from lysates of HEK293T cells treated with nocodazole for 20 h and MG132 for 6 h; blot with anti-BRSK2; lysis buffer 20 mM Tris-HCl pH 7.5, 150 mM NaCl, 1% Triton, 4°C; control IgG in parallel

Chains of the proteins cited; added tags and fusions are not shown.
UniProt Q9UM11: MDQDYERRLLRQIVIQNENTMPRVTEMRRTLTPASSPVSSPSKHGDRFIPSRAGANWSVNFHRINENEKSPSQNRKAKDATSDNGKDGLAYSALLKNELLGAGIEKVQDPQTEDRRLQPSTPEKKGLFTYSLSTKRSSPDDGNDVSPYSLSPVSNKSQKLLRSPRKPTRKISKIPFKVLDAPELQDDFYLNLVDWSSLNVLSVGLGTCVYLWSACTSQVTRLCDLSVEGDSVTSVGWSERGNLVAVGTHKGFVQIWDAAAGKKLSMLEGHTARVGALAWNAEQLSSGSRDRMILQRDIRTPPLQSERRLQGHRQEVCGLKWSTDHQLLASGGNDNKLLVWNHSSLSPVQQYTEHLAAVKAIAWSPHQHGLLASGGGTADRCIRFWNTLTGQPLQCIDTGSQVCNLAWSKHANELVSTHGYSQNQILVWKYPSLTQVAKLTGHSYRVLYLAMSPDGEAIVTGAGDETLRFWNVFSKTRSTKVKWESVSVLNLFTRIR

binding: binds
B1: Brain-specific kinase 2 (BRSK2) (protein, UniProt Q8IWQ3 1-736)
chain: MTSTGKDGGAQHAQYVGPYRLEKTLGKGQTGLVKLGVHCVTCQKVAIKIVNREKLSESVLMKVEREIAILKLIEHPHVLKLHDVYENKKYLYLVLEHVSGGELFDYLVKKGRLTPKEARKFFRQIISALDFCHSHSICHRDLKPENLLLDEKNNIRIADFGMASLQVGDSLLETSCGSPHYACPEVIRGEKYDGRKADVWSCGVILFALLVGALPFDDDNLRQLLEKVKRGVFHMPHFIPPDCQSLLRGMIEVDAARRLTLEHIQKHIWYIGGKNEPEPEQPIPRKVQIRSLPSLEDIDPDVLDSMHSLGCFRDRNKLLQDLLSEEENQEKMIYFLLLDRKERYPSQEDEDLPPRNEIDPPRKRVDSPMLNRHGKRRPERKSMEVLSVTDGGSPVPARRAIEMAQHGQRSRSISGASSGLSTSPLSSPRVTPHPSPRGSPLPTPKGTPVHTPKESPAGTPNPTPPSSPSVGGVPWRARLNSIKNSFLGSPRFHRRKLQVPTPEEMSNLTPESSPELAKKSWFGNFISLEKEEQIFVVIKDKPLSSIKADIVHAFLSIPSLSHSVISQTSFRAEYKATGGPAVFQKPVKFQVDITYTEGGEAQKENGIYSVTFTLLSGPSRRFKRVVETIQAQLLSTHDPPAAQHLSDTTNCMEMMTGRLSKCGSPLSNFFDVIKQLFSDEKNGQAAQAPSTPAKRSAHGPLGDSAAAGPGPGGDAEYPTGKDTAKMGPPTARREQP

Reference: PMC3448725
